From ChEMBL document CHEMBL3988442, “University of Dundee, Small-Polar-MMV Screening Library” (2021).

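Growth of Mycobacterium tuberculosis over 3 days (7H9 medium with glucose and tyloxapol); the read-out is not stated. Tested at 500 µM. The record gives no direction; compounds that gave an IC50 in retests scored well above the rest, so higher reads as more growth inhibition. About 18,000 compounds were tested under these conditions; 7.9% (about 1,400) showed 50% or more at least once.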

The filed quantity is “Percent Effect” (%). The record does not define 0% and 100%; most values in the screen are far below 50% and negative numbers occur (in some assays of this library far below -100). The compounds are a random part of those screened.

With CNC(=O)C1CCCN(C(=O)Cc2ccc(F)cc2)C1 (configuration not stated) the screen gave 0.927%.
With O=S(=O)(CCO)CCc1c(F)cccc1Cl the screen gave 17.05%.
With COc1ccc(CCC(=O)NCCCC(N)=O)cc1Cl the screen gave 5.503%.
With CCc1cnc(C(=O)NCC(O)CO)s1 (configuration not stated) the screen gave 27.86%.
With Nc1cncc(-c2ccc(CN3CCCC3)cn2)c1 the screen gave -1034%.
With CCN1CCN(CC(=O)Nc2c(C)cccc2C)CC1 the screen gave 6.605%.
With CS(=O)(=O)N1CCC(C(=O)N2CCCC2)CC1 the screen gave 9.208%.
With O=C(Nc1ccncc1)N1CCN(CC2CC2)CC1 the screen gave 10.37%.
With CCOC(=O)c1cccc(NC(N)=O)c1 the screen gave 16.19%.
With NS(=O)(=O)CC1CCCN1CCSc1ccccc1 (configuration not stated) the screen gave 37.4%.
With CN1N=C(c2ccc3c(c2)OCCO3)CCC1=O the screen gave 12.95%.
With Oc1ccc(-c2nnc[nH]2)cc1 the screen gave 5.2%.
With NCCn1ccccc1=O the screen gave 13.08%.
With Cc1cc(NC(=O)CCNC(=O)C2CCCC2)n(C)n1 the screen gave 11.17%.
With CN1CCCC1CC(=O)NCc1ccc(CN)cc1 (configuration not stated) the screen gave -13.18%.
With CC(C)N(C(=O)C1CCNCC1)C(C)C the screen gave 0.3769%.
With NCCc1ccco1 the screen gave 5.452%.
With CS(=O)(=O)N1CCCCC1CN1CCCC1=O (configuration not stated) the screen gave 4.225%.
With CCOC(=O)Cn1ccc(C)c(C#N)c1=O the screen gave 1.269%.
With O=C(c1ccncc1)N1C[C@H](O)[C@@H](N2CCCCC2)C1 the screen gave -12.66%.
With COc1ccc(C(=O)N2C[C@H](C3CC3)[C@@H](N)C2)o1 the screen gave 38.49%.
With Cc1cnccc1CCN the screen gave -8.708%.
With O=C(CN1CCn2ccnc2C1)Nc1ccc(Cl)cn1 the screen gave 27.15%.
With CC(C)c1cccc(NC(=O)CN2CCN(C)CC2)c1 the screen gave 46.1%.
With CNCC(=O)Nc1cc(Cl)ccc1OC the screen gave 23.43%.
With CC(=O)Nc1ccccc1CN(C)Cc1ccncc1 the screen gave -4.928%.
With COc1cccc(NC(=O)CNC(C)(C)C)c1 the screen gave -4.705%.
With O=C(NCC1COCCO1)c1cnc2ccccc2c1 (configuration not stated) the screen gave 50.44%.
With NCCc1nnc2n1CCC2 the screen gave 5.918%.
With CC1CN(C(=O)[C@H](O)c2ccccc2)CCS1 (some centres not stated) the screen gave -7.858%.
With CC(C(=O)N(C)c1ccccc1)N1CCC(O)CC1 (configuration not stated) the screen gave 9.57%.
With OC1CCCN(CCOc2ccccc2)C1 (configuration not stated) the screen gave 7.434%.
With NC1CCN(c2ncccc2Cl)C1 (configuration not stated) the screen gave 86.08%.
With CC(C)C(=O)CNC(=O)c1cc(Cl)cn1C the screen gave 36.31%.
With NCCCN1CCN(c2ccccc2)CC1 the screen gave -3.658%.
With CN(C)S(=O)(=O)NC(c1ccccc1)c1ccccc1 the screen gave 71.03%.
With CN(C)S(=O)(=O)CCNc1cc([C@H]2C[C@@H](O)C2)ncn1 the screen gave 21.31%.
With O=C1NC(Cc2ccccc2)C(=O)Nc2ccccc21 (configuration not stated) the screen gave 18.08%.
With CCNC(=O)N1CCN(c2ccncc2Cl)CC1 the screen gave 18.88%.
With CC1CN=C(N2CCN(CCc3ccccn3)CC2)S1 (configuration not stated) the screen gave 18%.
With CCN(CC)CCN1CCN(CCOC)CC1 the screen gave -11.47%.
With Cc1cccc(C(=O)NCCN(C)C)c1 the screen gave 10.62%.
With O=C(Cc1cccnc1)NCCn1cc(Cl)cn1 the screen gave 8.3%.
With CN1CCN(CNC(=O)c2cnccn2)CC1 the screen gave 4.468%.
With CN(CC(=O)Nc1ccn(C)n1)CC1(C)COC1 the screen gave 6.003%.
With CN1C(=O)C[C@@H](C(N)=O)[C@@H]1c1ccnn1C the screen gave -4.04%.
With C1CC(C2CNC2)CO1 (configuration not stated) the screen gave 7.943%.
With CN(c1ccc(CN)cc1)S(C)(=O)=O the screen gave 2.336%.
With N#Cc1cccc(-c2csc(N)n2)c1 the screen gave 31.33%.
With COCCNS(=O)(=O)C1CCCCC1 the screen gave 29.97%.
With COc1cc(NC(=O)Cn2ccnc2)c(OC)cc1Cl the screen gave 8.618%.
With NCc1cc2ccc(F)cc2[nH]c1=O the screen gave 18.72%.
With Cc1nnc(CN(C)C(=O)CSCC2CC2)o1 the screen gave 14.41%.
With CCN1CC(NC(=O)CCc2cccnc2)CC1=O (configuration not stated) the screen gave 5.927%.

Once more, the final 4:

structure,Percent Effect
COc1cc(NC(=O)Cn2ccnc2)c(OC)cc1Cl,8.618
NCc1cc2ccc(F)cc2[nH]c1=O,18.72
Cc1nnc(CN(C)C(=O)CSCC2CC2)o1,14.41
CCN1CC(NC(=O)CCc2cccnc2)CC1=O (configuration not stated),5.927